Data: patent publication US20170002313A1, “COMPOSITIONS AND METHODS OF OBTAINING AND USING ENDODERM AND HEPATOCYTE CELLS” (Genentech Inc., priority 2012, published 2017)
For at least one compound, name, drawing or mass did not settle the structure.

Legend:
hESC-derived cells = experiment: xCELLigence proliferation and viability time course; assay type: cell-based, human; details: 12 days, no medium change; Activin A + 750 nM Compound A, or Activin A + Wnt3a + 5 μM LY294002
Description: The hESC-derived cells grown under each condition were assayed for their proliferation and viability once a day for 12 days with no medium change using Roche's xCELLigence System according to standard protocol.
xCELLigence measured proliferation and viability as a function of impedance signal. High impedance signals indicated cell attachment to the surface of the culture dish, which is associated with increased proliferation. In contrast low impedance signals indicated cells' detachment from the surface of the culture dish, which is associated with cell death. […] The experiments whose results are depicted in FIG. 8 were performed in duplicate. Accordingly, there are two curves for each condition.

mTOR = mTOR (Homo sapiens, UniProt P42345); experiment: In vitro kinase profile, PI3K alpha_MTOR score; assay type: biochemical
Description: The effect of each compound on the PI3K/AKT/MTOR pathway was evaluated in two ways: via a kinase profile (FIG. 23) and via phospho imaging assays (i.e., immunofluorescence assays using antibodies specific for the phosphorylated form of mTOR or AKT). In vitro kinase profiling provided percent inhibition for numerous targets within the PI3K cell signaling pathway, and cell-based imaging assays were performed to directly visualize the effect of each compound on phosphorylated Akt and phosphorylated mTOR in the cell system used for differentiation.
In column 2 of Table 6, the PI3K alpha_MTOR score reflects the ability of a compound to inhibit the phosphorylation of PI3K alpha and mTOR, where + indicates minimal inhibition, and +++ indicates maximal inhibition. In column 3 of Table 6, the score indicates the ratio of phosphorylated mTOR (as measured by fluorescence intensity) in cells treated with a compound and the phosphorylated mTOR (as measured by fluorescence intensity) in cells that were not treated with the compound. In column 4 of Table 6, the score indicates the ratio of phosphorylated AKT (as measured by fluorescence intensity) in cells treated with a compound and the phosphorylated AKT (as measured by fluorescence intensity) in cells that were not treated with the compound. A reported effect of AKT inhibitors is an increase in phosphorylated AKT.

Row | Compound | viability and proliferation (impedance signal) (hESC-derived cells) | PI3K alpha_MTOR score: MTOR (mTOR)
1 | O=c1cc(N2CCOCC2)oc2c(-c3ccccc3)cccc12 [LY294002] | begin to exhibit cell death on Day 4 | –
2 | COC[C@H]1OC(=O)c2coc3c2[C@@]1(C)C1=C(C3=O)[C@@H]2CCC(=O)[C@@]2(C)C[C@H]1OC(C)=O [Wortmannin] | – | +
